This passage reports binding results from publication PMC10033410.

Sequences of proteins named here, by UniProt entry; tags and fusion partners are left off. Residues count along the entry.
UniProt Q9HC16: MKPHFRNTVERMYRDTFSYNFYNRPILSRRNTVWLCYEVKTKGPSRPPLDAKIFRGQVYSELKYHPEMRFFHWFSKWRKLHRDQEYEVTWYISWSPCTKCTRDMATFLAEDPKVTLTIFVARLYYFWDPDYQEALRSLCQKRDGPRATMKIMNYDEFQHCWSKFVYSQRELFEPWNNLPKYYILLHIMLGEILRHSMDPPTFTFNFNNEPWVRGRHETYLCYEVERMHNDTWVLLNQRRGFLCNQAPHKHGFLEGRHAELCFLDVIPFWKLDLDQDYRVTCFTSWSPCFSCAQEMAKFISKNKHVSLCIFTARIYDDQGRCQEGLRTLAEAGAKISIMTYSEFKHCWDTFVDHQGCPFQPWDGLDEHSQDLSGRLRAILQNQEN
UniProt Q93034, residues 1-386: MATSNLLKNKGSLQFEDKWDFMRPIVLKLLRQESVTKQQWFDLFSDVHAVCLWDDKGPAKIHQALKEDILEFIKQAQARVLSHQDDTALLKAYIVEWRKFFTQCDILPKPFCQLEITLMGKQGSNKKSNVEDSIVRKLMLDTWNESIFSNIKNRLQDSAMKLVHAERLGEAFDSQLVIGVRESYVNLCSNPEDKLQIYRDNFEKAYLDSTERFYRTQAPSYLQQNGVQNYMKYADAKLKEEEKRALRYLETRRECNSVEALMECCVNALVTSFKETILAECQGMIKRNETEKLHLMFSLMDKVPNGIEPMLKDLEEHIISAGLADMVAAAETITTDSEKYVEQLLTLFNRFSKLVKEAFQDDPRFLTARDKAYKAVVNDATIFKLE

No constants are given. Whether binding was seen depends on the method and setting. Binding seen in cells or lysates may run through a third protein. Some results given as binding are weak or reduced against the parent protein; the word gives no strength.

The target of the experiment is human APOBEC3G (human) (UniProt Q9HC16). Nature of the experiment: pull-down.

Take “Cullin 5 with C-terminus truncated (1–386) (from UniProt Q93034 1-386) (domain or fragment)”: the binding entry is “binds”.
